# Data published in paper PMC7515897.
# Amino acid sequences for entries named in this document (tags omitted).
# UniProt P67809: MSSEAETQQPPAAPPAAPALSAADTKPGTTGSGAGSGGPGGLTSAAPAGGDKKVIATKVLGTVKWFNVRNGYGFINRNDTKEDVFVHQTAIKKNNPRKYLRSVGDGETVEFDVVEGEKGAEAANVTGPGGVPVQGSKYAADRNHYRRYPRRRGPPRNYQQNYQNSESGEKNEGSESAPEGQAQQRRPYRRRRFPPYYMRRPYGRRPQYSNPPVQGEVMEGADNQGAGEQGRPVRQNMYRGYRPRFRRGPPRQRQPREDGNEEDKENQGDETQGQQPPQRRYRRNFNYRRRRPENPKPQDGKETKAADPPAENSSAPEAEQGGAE
# No constants are given. Whether binding was seen depends on the method and setting. Binding seen in cells or lysates may run through a third protein. Some results given as binding are weak or reduced against the parent protein; the word gives no strength.
# What was measured:
# [1] = target: haemagglutinin (HA)-tagged β2-AR, full-length (UniProt P07550); assay: co-IP; HEK293T cells transfected with full-length or truncated HA-tagged β2-AR and Myc-tagged YB-1
# [2] = target: cytoplasmic C-terminus of β2-AR (314–413 aa) (UniProt P07550); assay: as above
# [3] = target: β2-adrenergic receptor (human (endogenous in HCC tissue and SMMC-7721)) (UniProt P07550); assay: co-IP; endogenous proteins in metastatic HCC tissue specimens; IP with anti-β2-AR or anti-YB-1 antibody, blot of the other
# [4] = target: β2-adrenergic receptor (human (endogenous in HCC tissue and SMMC-7721)) (UniProt P07550); assay: co-IP; endogenous proteins in SMMC-7721 cell lysates, cells pre-treated with 10 μM ISO; IP with an antibody to one partner, blot of the other
# GST-YB-1 = GST-YB-1 (UniProt P67809); assay: pull-down; GST pull-down of HA-β2-AR from whole-cell extracts of HEK293T cells, with GST or GST-YB-1
# [5] = target: phosphorylated β2-AR (human (endogenous in SMMC-7721)) (UniProt P07550); assay: co-IP; endogenous proteins in SMMC-7721 cell lysates, cells pre-treated with 10 μM ISO; IP with an antibody to one partner, blot of the other
# [6] = target: phosphorylated YB-1 (S102) (human (endogenous in SMMC-7721)) (UniProt P67809); assay: as above
# [7] = target: Y-box binding protein 1 (human (endogenous in HCC tissue and SMMC-7721)) (UniProt P67809); assay: co-IP; endogenous proteins in metastatic HCC tissue specimens; IP with anti-β2-AR or anti-YB-1 antibody, blot of the other
# [8] = target: Y-box binding protein 1 (human (endogenous in HCC tissue and SMMC-7721)) (UniProt P67809); assay: co-IP; endogenous proteins in SMMC-7721 cell lysates, cells pre-treated with 10 μM ISO; IP with an antibody to one partner, blot of the other
substance,measurement,setting,value
"Myc-tagged YB-1, full-length (from UniProt P67809 1-324)",binding,[1],binds
same,binding,[2],binds
Y-box binding protein 1 (from UniProt P67809 1-324),binding,[3],binds
same,binding,[4],binds
"haemagglutinin (HA)-tagged β2-AR, full-length (from UniProt P07550 1-413) (receptor)",binding,GST-YB-1,binds
phosphorylated YB-1 (S102) (from UniProt P67809 1-324),binding,[5],binds
phosphorylated β2-AR (from UniProt P07550 1-413) (receptor),binding,[6],binds
β2-adrenergic receptor (from UniProt P07550 1-413),binding,[7],binds
same,binding,[8],binds
